Measured values reported in the supplement of paper PMC10032668.
The other results are listed elsewhere or left out. The list holds hits alone, and they repeat only in part.

The chains behind the UniProt entries cited, without tags or fusion partners.
HSPB1, P04792, UniProt P04792, whole entry: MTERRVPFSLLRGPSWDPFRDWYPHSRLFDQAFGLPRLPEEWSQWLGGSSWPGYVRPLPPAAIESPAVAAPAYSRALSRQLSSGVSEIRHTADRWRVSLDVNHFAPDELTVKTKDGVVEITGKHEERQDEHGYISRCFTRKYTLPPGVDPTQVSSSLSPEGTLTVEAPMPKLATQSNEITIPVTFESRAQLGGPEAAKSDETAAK
RFC4, P35249, UniProt P35249, whole entry: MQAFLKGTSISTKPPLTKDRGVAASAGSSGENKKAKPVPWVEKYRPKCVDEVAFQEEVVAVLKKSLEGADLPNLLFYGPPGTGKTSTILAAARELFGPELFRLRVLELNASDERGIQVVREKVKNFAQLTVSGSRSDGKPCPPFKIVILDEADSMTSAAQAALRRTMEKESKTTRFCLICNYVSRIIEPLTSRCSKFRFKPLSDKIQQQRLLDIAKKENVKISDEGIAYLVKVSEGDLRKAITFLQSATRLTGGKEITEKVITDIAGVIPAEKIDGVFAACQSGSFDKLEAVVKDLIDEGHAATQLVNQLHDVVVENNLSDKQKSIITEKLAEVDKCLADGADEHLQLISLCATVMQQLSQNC
EIF4E, P06730, UniProt P06730, whole entry: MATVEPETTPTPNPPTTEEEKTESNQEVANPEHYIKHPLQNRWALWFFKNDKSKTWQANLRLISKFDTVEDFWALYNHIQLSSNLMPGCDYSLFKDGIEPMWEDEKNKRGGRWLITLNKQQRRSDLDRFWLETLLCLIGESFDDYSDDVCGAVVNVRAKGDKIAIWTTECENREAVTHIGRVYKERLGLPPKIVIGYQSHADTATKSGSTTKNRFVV
FABP5, Q01469, UniProt Q01469, whole entry: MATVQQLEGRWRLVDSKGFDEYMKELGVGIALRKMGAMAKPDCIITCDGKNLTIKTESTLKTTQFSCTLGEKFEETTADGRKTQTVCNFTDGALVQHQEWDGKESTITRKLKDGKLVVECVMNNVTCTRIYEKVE
HIST1H1D, P16402, UniProt P16402, whole entry: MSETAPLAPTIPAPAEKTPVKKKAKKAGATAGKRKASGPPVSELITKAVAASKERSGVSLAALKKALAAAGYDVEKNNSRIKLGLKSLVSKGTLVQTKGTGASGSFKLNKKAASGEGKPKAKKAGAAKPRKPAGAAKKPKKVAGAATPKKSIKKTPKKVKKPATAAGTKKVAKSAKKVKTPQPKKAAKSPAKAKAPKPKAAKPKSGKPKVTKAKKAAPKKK
IGF2BP3, O00425, UniProt O00425, whole entry: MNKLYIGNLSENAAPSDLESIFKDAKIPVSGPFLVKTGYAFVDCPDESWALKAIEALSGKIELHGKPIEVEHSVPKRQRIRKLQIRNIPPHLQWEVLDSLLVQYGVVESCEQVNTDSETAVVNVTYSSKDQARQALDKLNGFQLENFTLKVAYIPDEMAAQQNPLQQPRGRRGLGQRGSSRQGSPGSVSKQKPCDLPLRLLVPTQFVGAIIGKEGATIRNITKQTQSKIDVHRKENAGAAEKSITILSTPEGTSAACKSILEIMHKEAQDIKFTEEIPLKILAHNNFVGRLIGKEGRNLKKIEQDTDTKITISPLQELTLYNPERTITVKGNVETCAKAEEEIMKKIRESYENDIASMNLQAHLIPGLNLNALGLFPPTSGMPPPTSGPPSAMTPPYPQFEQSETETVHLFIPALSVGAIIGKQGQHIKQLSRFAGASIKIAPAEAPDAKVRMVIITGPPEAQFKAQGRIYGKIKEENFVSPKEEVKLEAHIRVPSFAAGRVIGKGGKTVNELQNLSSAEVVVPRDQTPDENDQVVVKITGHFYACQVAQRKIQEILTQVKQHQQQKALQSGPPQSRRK
SERPINA1, P01009, UniProt P01009, whole entry: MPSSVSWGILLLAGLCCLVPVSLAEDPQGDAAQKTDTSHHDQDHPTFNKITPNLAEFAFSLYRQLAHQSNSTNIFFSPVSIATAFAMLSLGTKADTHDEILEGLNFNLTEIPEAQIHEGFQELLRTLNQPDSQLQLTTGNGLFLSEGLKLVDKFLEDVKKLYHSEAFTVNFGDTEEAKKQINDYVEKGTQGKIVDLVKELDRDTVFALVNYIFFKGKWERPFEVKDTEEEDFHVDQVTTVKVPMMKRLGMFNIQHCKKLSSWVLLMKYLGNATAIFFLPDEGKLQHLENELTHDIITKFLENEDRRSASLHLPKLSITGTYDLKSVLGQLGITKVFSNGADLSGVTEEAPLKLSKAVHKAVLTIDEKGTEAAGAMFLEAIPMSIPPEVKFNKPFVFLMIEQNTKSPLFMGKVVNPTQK
TRRAP, Q9Y4A5, UniProt Q9Y4A5, whole entry: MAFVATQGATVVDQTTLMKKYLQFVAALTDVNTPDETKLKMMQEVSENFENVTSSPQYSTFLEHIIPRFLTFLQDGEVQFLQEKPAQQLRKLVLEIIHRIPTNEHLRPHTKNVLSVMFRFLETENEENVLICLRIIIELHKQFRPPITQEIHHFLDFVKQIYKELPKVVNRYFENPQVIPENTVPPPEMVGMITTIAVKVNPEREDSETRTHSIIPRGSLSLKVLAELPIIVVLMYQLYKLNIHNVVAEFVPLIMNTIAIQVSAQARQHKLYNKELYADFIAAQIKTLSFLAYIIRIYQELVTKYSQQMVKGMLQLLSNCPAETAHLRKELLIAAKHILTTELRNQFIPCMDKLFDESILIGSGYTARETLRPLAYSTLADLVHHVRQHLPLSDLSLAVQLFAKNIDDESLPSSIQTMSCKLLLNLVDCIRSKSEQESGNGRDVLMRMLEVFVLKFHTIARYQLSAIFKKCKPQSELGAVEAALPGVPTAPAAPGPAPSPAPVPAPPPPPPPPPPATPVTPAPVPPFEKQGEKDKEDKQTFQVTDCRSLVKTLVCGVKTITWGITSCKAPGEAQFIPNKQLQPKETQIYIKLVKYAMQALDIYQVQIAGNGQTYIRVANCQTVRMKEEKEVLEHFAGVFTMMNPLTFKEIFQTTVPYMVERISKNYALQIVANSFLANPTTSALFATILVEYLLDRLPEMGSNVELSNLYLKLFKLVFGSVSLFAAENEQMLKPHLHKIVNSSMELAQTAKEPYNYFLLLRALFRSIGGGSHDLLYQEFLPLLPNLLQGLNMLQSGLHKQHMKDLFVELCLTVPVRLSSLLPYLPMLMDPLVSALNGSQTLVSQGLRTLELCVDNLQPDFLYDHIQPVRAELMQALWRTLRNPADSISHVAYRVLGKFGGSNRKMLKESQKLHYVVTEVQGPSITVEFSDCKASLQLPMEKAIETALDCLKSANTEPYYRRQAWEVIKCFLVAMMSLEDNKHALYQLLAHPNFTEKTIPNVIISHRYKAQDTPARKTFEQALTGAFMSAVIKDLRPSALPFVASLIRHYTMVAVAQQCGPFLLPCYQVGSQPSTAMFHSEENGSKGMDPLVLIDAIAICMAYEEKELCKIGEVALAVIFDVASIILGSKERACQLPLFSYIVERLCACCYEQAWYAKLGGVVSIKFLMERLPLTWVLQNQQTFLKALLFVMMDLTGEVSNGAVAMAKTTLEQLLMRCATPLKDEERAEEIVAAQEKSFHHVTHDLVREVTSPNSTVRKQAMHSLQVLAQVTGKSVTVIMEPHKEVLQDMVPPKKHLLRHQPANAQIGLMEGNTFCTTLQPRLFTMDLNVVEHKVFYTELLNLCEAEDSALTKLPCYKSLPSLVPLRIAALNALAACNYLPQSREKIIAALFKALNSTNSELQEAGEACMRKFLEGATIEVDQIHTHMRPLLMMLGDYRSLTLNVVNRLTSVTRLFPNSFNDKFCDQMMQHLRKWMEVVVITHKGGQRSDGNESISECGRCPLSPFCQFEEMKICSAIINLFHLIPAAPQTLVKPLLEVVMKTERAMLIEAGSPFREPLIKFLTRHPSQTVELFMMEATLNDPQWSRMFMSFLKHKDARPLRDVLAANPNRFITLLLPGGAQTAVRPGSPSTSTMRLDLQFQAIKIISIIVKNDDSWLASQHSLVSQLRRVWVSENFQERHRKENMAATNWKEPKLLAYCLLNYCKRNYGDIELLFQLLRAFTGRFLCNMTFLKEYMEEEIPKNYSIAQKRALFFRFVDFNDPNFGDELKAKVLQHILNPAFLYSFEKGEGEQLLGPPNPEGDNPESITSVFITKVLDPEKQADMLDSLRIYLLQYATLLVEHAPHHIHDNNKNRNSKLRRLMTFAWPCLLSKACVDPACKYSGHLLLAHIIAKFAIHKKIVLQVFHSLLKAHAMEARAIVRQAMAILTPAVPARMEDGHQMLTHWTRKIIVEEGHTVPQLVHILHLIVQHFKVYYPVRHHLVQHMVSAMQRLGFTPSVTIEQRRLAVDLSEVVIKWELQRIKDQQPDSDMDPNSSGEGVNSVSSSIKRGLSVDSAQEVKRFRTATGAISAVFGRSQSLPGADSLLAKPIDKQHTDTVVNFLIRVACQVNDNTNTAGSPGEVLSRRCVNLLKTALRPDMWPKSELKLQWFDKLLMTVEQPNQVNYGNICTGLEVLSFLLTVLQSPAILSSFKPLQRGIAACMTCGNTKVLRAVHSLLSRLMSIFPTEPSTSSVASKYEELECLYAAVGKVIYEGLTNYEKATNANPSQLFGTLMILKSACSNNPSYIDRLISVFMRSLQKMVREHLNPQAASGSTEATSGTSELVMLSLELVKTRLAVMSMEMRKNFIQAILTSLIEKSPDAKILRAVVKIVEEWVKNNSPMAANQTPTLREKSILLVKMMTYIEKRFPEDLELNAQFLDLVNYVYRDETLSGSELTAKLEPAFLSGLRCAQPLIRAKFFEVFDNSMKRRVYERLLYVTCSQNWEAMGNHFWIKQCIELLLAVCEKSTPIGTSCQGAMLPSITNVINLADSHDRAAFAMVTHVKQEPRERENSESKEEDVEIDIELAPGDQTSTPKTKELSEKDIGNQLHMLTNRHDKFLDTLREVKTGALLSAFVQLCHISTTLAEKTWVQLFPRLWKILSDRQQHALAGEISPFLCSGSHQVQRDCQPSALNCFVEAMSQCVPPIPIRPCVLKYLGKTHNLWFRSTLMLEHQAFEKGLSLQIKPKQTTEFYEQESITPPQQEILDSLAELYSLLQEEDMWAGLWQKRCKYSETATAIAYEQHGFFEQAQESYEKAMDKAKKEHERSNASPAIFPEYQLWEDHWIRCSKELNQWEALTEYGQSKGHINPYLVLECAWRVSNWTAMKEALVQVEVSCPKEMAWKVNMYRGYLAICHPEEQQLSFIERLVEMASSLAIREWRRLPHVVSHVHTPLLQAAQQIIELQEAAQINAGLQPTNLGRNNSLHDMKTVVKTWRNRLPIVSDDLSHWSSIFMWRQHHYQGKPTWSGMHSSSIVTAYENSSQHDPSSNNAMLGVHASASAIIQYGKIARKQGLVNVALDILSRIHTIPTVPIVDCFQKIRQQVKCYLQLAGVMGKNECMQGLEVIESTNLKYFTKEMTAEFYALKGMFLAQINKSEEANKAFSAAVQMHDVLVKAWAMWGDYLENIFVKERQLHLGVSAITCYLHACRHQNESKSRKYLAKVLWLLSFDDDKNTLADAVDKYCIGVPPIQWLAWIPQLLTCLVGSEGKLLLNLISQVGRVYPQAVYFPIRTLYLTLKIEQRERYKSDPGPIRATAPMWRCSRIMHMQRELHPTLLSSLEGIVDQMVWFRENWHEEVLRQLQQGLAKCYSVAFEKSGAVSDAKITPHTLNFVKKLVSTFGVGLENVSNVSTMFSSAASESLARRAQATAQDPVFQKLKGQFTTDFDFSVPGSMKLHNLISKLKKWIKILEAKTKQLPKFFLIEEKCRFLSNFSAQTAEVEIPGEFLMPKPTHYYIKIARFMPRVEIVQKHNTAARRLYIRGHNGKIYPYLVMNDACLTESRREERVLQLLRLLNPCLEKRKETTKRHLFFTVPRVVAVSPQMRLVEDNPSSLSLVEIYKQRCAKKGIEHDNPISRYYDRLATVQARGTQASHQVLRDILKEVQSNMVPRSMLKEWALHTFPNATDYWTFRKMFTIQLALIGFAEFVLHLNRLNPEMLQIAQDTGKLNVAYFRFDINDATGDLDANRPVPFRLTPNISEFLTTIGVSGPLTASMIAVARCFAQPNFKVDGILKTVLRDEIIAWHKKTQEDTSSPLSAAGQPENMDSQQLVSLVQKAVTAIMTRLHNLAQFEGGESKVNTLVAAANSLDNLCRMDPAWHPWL

What was measured:
Assay in all cases: PRISMA enrichment of interactor (LFQ) in peptide spot vs all other peptide spots (log2 fold change); higher = stronger / more specific binding of the interactor to the peptide
AP2M1, Q96CW1 = molecular target: AP2M1, Q96CW1
Procedure: (§1)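 PRISMA: 15-aa overlapping tiles (offset 8 aa) of 60 microproteins, plus SOS1/GLUT1 control peptides, were spot-synthesized on cellulose membranes in triplicate. Membranes were incubated with benzonase-treated HEK293T lysate, and bound proteins were identified by LC-MS/MS with LFQ. Enrichment is the log2 fold change of each protein in one spot versus all other spots. Only interactors passing the significance cutoff are listed.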

BCOR, Q6W2J9 = molecular target: BCOR, Q6W2J9
Procedure: as §1

HSPB1, P04792 = molecular target: HSPB1, P04792
Procedure: as §1

LSM4, Q9Y4Z0 = molecular target: LSM4, Q9Y4Z0
Procedure: as §1

MAP7D3, Q8IWC1 = molecular target: MAP7D3, Q8IWC1
Procedure: as §1

MPDU1, O75352 = molecular target: MPDU1, O75352
Procedure: as §1

NUP50, Q9UKX7 = molecular target: NUP50, Q9UKX7
Procedure: as §1

PTPN1, P18031 = molecular target: PTPN1, P18031
Procedure: as §1

RAB18, Q9NP72 = molecular target: RAB18, Q9NP72
Procedure: as §1

RFC4, P35249 = molecular target: RFC4, P35249
Procedure: as §1

SGTA, O43765 = molecular target: SGTA, O43765
Procedure: as §1

SURF4, O15260 = molecular target: SURF4, O15260
Procedure: as §1

TAF15, Q92804 = molecular target: TAF15, Q92804
Procedure: as §1

TMEM256-PLSCR3 = molecular target: TMEM256-PLSCR3
Procedure: as §1

TOMM34, Q15785 = molecular target: TOMM34, Q15785
Procedure: as §1

AP3B1, O00203 = molecular target: AP3B1, O00203
Procedure: as §1

DDX52, Q9Y2R4 = molecular target: DDX52, Q9Y2R4
Procedure: as §1

EIF4E, P06730 = molecular target: EIF4E, P06730
Procedure: as §1

FABP5, Q01469 = molecular target: FABP5, Q01469
Procedure: as §1

FHOD1, Q9Y613 = molecular target: FHOD1, Q9Y613
Procedure: as §1

GPD1L, Q8N335 = molecular target: GPD1L, Q8N335
Procedure: as §1

GSTK1, Q9Y2Q3 = molecular target: GSTK1, Q9Y2Q3
Procedure: as §1

HIST1H1D, P16402 = molecular target: HIST1H1D, P16402
Procedure: as §1

IGF2BP3, O00425 = molecular target: IGF2BP3, O00425
Procedure: as §1

MRPL27, Q9P0M9 = molecular target: MRPL27, Q9P0M9
Procedure: as §1

NOL6, Q9H6R4 = molecular target: NOL6, Q9H6R4
Procedure: as §1

PEX11B, O96011 = molecular target: PEX11B, O96011
Procedure: as §1

POLR2A, P24928 = molecular target: POLR2A, P24928
Procedure: as §1

RACGAP1, Q9H0H5 = molecular target: RACGAP1, Q9H0H5
Procedure: as §1

RP9, Q8TA86 = molecular target: RP9, Q8TA86
Procedure: as §1

RPP38, P78345 = molecular target: RPP38, P78345
Procedure: as §1

RPUSD4, Q96CM3 = molecular target: RPUSD4, Q96CM3
Procedure: as §1

SCRIB = molecular target: SCRIB
Procedure: as §1

SERPINA1, P01009 = molecular target: SERPINA1, P01009
Procedure: as §1

SMCHD1, A6NHR9 = molecular target: SMCHD1, A6NHR9
Procedure: as §1

SMPD4, Q9NXE4 = molecular target: SMPD4, Q9NXE4
Procedure: as §1

TMCO1, Q9UM00 = molecular target: TMCO1, Q9UM00
Procedure: as §1

ZGRF1, Q86YA3 = molecular target: ZGRF1, Q86YA3
Procedure: as §1

AP3D1, O14617 = molecular target: AP3D1, O14617
Procedure: as §1

GEMIN2, O14893 = molecular target: GEMIN2, O14893
Procedure: as §1

RRP7A, Q9Y3A4 = molecular target: RRP7A, Q9Y3A4
Procedure: as §1

TRRAP, Q9Y4A5 = molecular target: TRRAP, Q9Y4A5
Procedure: as §1

UQCRC1, P31930 = molecular target: UQCRC1, P31930
Procedure: as §1

VHLGTYFLQRSAKQS
PRISMA enrichment of interactor (log2) (AP2M1, Q96CW1): 6.12
PRISMA enrichment of interactor (log2) (BCOR, Q6W2J9): 5.05
PRISMA enrichment of interactor (log2) (HSPB1, P04792): 4.21
PRISMA enrichment of interactor (log2) (LSM4, Q9Y4Z0): 4.21
PRISMA enrichment of interactor (log2) (MAP7D3, Q8IWC1): 4.96
PRISMA enrichment of interactor (log2) (MPDU1, O75352): 3.83
PRISMA enrichment of interactor (log2) (NUP50, Q9UKX7): 4.26
PRISMA enrichment of interactor (log2) (PTPN1, P18031): 5.92
PRISMA enrichment of interactor (log2) (RAB18, Q9NP72): 3.67
PRISMA enrichment of interactor (log2) (RFC4, P35249): 5.1
PRISMA enrichment of interactor (log2) (SGTA, O43765): 4.76
PRISMA enrichment of interactor (log2) (SURF4, O15260): 4.91
PRISMA enrichment of interactor (log2) (TAF15, Q92804): 5.95
PRISMA enrichment of interactor (log2) (TMEM256-PLSCR3): 4.11
PRISMA enrichment of interactor (log2) (TOMM34, Q15785): 6.12

ASLHGARLSPLSRNI [IDI2-AS1]
PRISMA enrichment of interactor (log2) (AP3B1, O00203): 4.6
PRISMA enrichment of interactor (log2) (DDX52, Q9Y2R4): 8.66
PRISMA enrichment of interactor (log2) (EIF4E, P06730): 5.21
PRISMA enrichment of interactor (log2) (FABP5, Q01469): 5.41
PRISMA enrichment of interactor (log2) (FHOD1, Q9Y613): 4.17
PRISMA enrichment of interactor (log2) (GPD1L, Q8N335): 6.95
PRISMA enrichment of interactor (log2) (GSTK1, Q9Y2Q3): 4.45
PRISMA enrichment of interactor (log2) (HIST1H1D, P16402): 5.94
PRISMA enrichment of interactor (log2) (IGF2BP3, O00425): 5.87
PRISMA enrichment of interactor (log2) (MRPL27, Q9P0M9): 8.85
PRISMA enrichment of interactor (log2) (NOL6, Q9H6R4): 4.93
PRISMA enrichment of interactor (log2) (PEX11B, O96011): 7.07
PRISMA enrichment of interactor (log2) (POLR2A, P24928): 5.51
PRISMA enrichment of interactor (log2) (RACGAP1, Q9H0H5): 4.04
PRISMA enrichment of interactor (log2) (RP9, Q8TA86): 3.97
PRISMA enrichment of interactor (log2) (RPP38, P78345): 4.11
PRISMA enrichment of interactor (log2) (RPUSD4, Q96CM3): 5.09
PRISMA enrichment of interactor (log2) (SCRIB): 4.5
PRISMA enrichment of interactor (log2) (SERPINA1, P01009): 4.24
PRISMA enrichment of interactor (log2) (SMCHD1, A6NHR9): 5.04
PRISMA enrichment of interactor (log2) (SMPD4, Q9NXE4): 4.54
PRISMA enrichment of interactor (log2) (TMCO1, Q9UM00): 5.33
PRISMA enrichment of interactor (log2) (ZGRF1, Q86YA3): 6.93

LQRSAKQSVKFQSQS
PRISMA enrichment of interactor (log2) (AP3D1, O14617): 4.58
PRISMA enrichment of interactor (log2) (GEMIN2, O14893): 4.98
PRISMA enrichment of interactor (log2) (RRP7A, Q9Y3A4): 4.27
PRISMA enrichment of interactor (log2) (TRRAP, Q9Y4A5): 5.7
PRISMA enrichment of interactor (log2) (UQCRC1, P31930): 4.24
